Counter-ions that a name gives are not always drawn. The list shows a part of the results. Most entries show no effect beyond the scatter of the controls.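 Differential scanning fluorimetry gave melting temperatures in a one-replicate pilot screen of a library of approved drugs plus clinical or known-target compounds. Hits increasing melting point at least 2 °C were the strongest stabilizers, while negative shifts signify destabilization.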

The subject of the experiment is SARS-CoV-2 main protease (Mpro, nsp5). As to the kind of experiment: thermal shift ΔTm of Mpro relative to plate average Tm; higher = stronger thermal stabilization of Mpro (binding). Particulars: 10 µM; protein concentration 1 µM.
Take `C[C@@H](c1ncncc1F)[C@](O)(Cn1cncn1)c1ccc(F)cc1F` [Voriconazole]: the “thermal shift ΔTm of Mpro” value was 0.192 °C.
Then `C=C(C)[C@@H]1CCC2=CC(=O)C[C@@H](C)[C@]2(C)C1` [Nootkatone], with -0.0808 °C.
Then `CN(C)CCCNC(=O)c1ccc(-c2cc(O)c3ncccc3c2)cc1`, with -0.232 °C; and `C[C@@H]1CC(=O)NN=C1c1ccc(NN=C(C#N)C#N)cc1` [Levosimendan], with 0.00185 °C.
In the case of `O=c1[nH]c(=O)n([C@@H]2O[C@H](CO)[C@@H](O)[C@H]2O)cc1F` [5-Fluorouridine], the “thermal shift ΔTm of Mpro” value was determined as 0.201 °C.
The same measure for `CC(C)NC[C@H](O)COc1ccc(CCOCC2CC2)cc1` [Levobetaxolol HCl]: -0.143 °C; for `NC(=O)c1cccc2[nH]c(-c3ccc(C4CCCN4)cc3F)nc12` (stereo not drawn): -0.0319 °C; for `COc1cc(N2CCN(C)CC2)ccc1Nc1nccc(-c2cn(C)c3cnccc23)n1`: -0.246 °C.
The same measure for `COc1cc2c(cc1O)CC[C@@H]1[C@@H]2CC[C@]2(C)[C@@H](O)CC[C@@H]12` [2-Methoxyestradiol (2-MeOE2)]: 0.364 °C; for `CC1(C)C(C=C(Cl)Cl)C1C(=O)OCc1cccc(Oc2ccccc2)c1` (stereo not drawn) [Permethrin]: 0.00591 °C; for `Clc1ccccc1CN1CCc2sccc2C1` [Ticlopidine hydrochloride]: 0.302 °C.
Then `CCC(=O)O[C@H](CC(=O)O)C[N+](C)(C)C` [Propionyl-L-carnitine hydrochloride], with -0.035 °C.
For the compound `Nc1ccc(O)c(C(=O)O)c1` [Mesalamine], the “thermal shift ΔTm of Mpro” value is -0.401 °C.
Then `O=C1NC(=O)/C(=C\c2ccc3nccnc3c2)S1`, with 0.0186 °C; and `C[C@@H](NC(=O)[C@@H](N)Cc1ccc(O)cc1)C(=O)NCC(=O)N(C)[C@@H](Cc1ccccc1)C(=O)NCCO`, with 0.0536 °C; and `Cc1cc(NC(=O)C2=C(O)c3ccccc3S(=O)(=O)N2C)no1` [Isoxicam], with 0.271 °C.
Then `Nc1nccc(-c2c(-c3ccc(F)cc3)ncn2C2CCCCC2)n1`, with 0.161 °C; and `CN(C)CCCN1c2ccccc2CCc2ccc(Cl)cc21` [Clomipramine HCl], with -0.0666 °C; and `O=C(O)CSc1cc(NS(=O)(=O)c2ccc(Br)cc2)c2ccccc2c1O`, with 0.173 °C.
As for `COC(=O)N1CCN(Cc2cccc(NC(=O)Nc3ccc(C)nc3)c2F)CC1`, the “thermal shift ΔTm of Mpro” value is 0.0174 °C.
Then `CC(C)[C@H](C(=O)Nc1ccc(C(=O)NO)cc1)c1ccccc1`, with -0.0748 °C; and `C#C[C@]1(OC(C)=O)CC[C@H]2[C@@H]3CCC4=C[C@@H](OC(C)=O)CC[C@@H]4[C@H]3CC[C@@]21C` [Ethynodiol diacetate], with 0.0382 °C.
The same measure for `O=C(N[C@@H](c1ccccc1)[C@@H](O)C(=O)O)c1ccccc1` [N-Benzoyl-(2R,3S)-3-phenylisoserine]: 0.0654 °C.
Then `Oc1cc(-c2nc(-c3ccccc3)[nH]c2-c2ccncc2)ccc1Cl`, with 0.204 °C; and `O=c1cccc2n1CC1CC2CN2CCCCC12` (stereo not drawn) [Thermopsine], with 2.56 °C.
On to `CNC1CCC(N(Cc2cccc(-c3ccncc3)c2)C(=O)c2sc3ccccc3c2Cl)CC1` (stereo not drawn) [SAG hydrochloride], for which the “thermal shift ΔTm of Mpro” value is -0.233 °C.
The same measure for `CNC1CCC(N(Cc2cccc(-c3ccncc3)c2)C(=O)c2sc3ccccc3c2Cl)CC1` (stereo not drawn) [Smoothened Agonist (SAG) HCl]: -0.33 °C.
The same measure for `COc1ccnc(C[S+]([O-])c2nc3cc(-n4cccc4)ccc3[nH]2)c1C` (stereo not drawn) [Ilaprazole sodium]: -0.968 °C; for `NC(=O)c1ccc2nc(-c3ccc(Oc4ccc(Cl)cc4)cc3)[nH]c2c1`: 0.0061 °C; for `COc1ccc(C[C@H]2NC[C@H](O)[C@H]2OC(C)=O)cc1` [Anisomycin]: -0.158 °C.
The same measure for `CCCC(C)NC(=O)c1ccc(Cl)c(Cl)c1` (stereo not drawn): -0.148 °C; for `Nc1ccc(S(=O)(=O)Nc2ncccn2)cc1` [Sulfadiazine]: 0.0493 °C.
For the compound `C=CCc1cc(OC)c(O)c(C(=O)NCCO)c1` [Alibendol], the “thermal shift ΔTm of Mpro” value turned out to be 0.0751 °C.
`O=C(NC[C@H](O)CN1CCc2ccccc2C1)c1ccnc(NC2CCC2)c1`: the “thermal shift ΔTm of Mpro” value was -0.0939 °C.
Take `Oc1cc(O)cc(/C=C/c2ccccc2)c1` [Pinosylvin]: the “thermal shift ΔTm of Mpro” value was -0.000424 °C.
Regarding `COc1cc(/C=C/C(=O)O[C@H]2[C@H](O)[C@@H](CO)O[C@@]2(CO)O[C@H]2O[C@H](CO)[C@@H](O)[C@H](O)[C@H]2O)cc(OC)c1O` [Sibiricose A6], the “thermal shift ΔTm of Mpro” value is -0.0775 °C.
Consider `C#C[C@]1(O)CC[C@H]2[C@@H]3CCC4=CC(=O)CC[C@@H]4[C@H]3CC[C@@]21C` [Norethindrone], for which the “thermal shift ΔTm of Mpro” value was determined as 0.0631 °C.
Then `COc1ccc2c(c1)/C(=C/c1cnc[nH]1)C(=O)N2`, with -0.206 °C; and `CCOc1cn(-c2ccc(F)cc2C)nc1C(=O)Nc1ccc(Oc2ccnc3cc(OC)c(OC)cc23)c(F)c1`, with -0.135 °C.
Turning to `N[C@@H]1CCCN(c2c(/C=C3\SC(=O)NC3=O)cccc2-c2ccccc2)C1`, the “thermal shift ΔTm of Mpro” value was -0.0207 °C.
Regarding `CCC1(c2cccc(O)c2)CCCCN(C)C1` (stereo not drawn) [Meptazinol HCl], the “thermal shift ΔTm of Mpro” value turned out to be 0.198 °C.
The same measure for `CO[C@H]1C[C@@H]2CC[C@@H](C)[C@@](O)(O2)C(=O)C(=O)N2CCCC[C@H]2C(=O)O[C@H]([C@H](C)C[C@@H]2CC[C@@H](O)[C@H](OC)C2)CC(=O)[C@H](C)/C=C(\C)[C@@H](O)[C@@H](OC)C(=O)[C@H](C)C[C@H](C)/C=C/C=C/C=C/1C` [Rapamycin (Sirolimus)]: -0.644 °C; for `COc1ccc(-c2oc3c(CC=C(C)C)c(O[C@@H]4O[C@H](CO)[C@@H](O)[C@H](O)[C@H]4O)cc(O)c3c(=O)c2O[C@@H]2O[C@@H](C)[C@H](O)[C@@H](O[C@@H]3O[C@H](CO)[C@@H](O)[C@H](O)[C@H]3O)[C@H]2O)cc1` [Epimedin A1]: -0.0258 °C.
As to `CCOc1ccccc1C(N)=O` [Anovigam], the “thermal shift ΔTm of Mpro” value came out at 0.0381 °C.
Then `C[C@@H]1CC[C@H]2[C@@H](C)C(=O)O[C@@H]3O[C@@]4(C)CC[C@@H]1[C@]32OO4` [Artemisinin], with 0.173 °C.
Then `CN(C)CC1CCOC1(c1ccccc1)c1ccccc1` (stereo not drawn) [Anavex 2-73], with 0.0776 °C; and `O=[N+]([O-])c1cc(C(F)(F)F)cc([N+](=O)[O-])c1NNC(=S)Nc1ccc(F)cc1`, with 0.335 °C; and `COc1cc2ncnc(Nc3ccc(Cl)cc3F)c2cc1OC`, with -0.0416 °C.
The same measure for `Oc1ccc(Nc2nc(-c3ccc(Cl)cc3)cs2)cc1`: 0.347 °C; for `CNC(=O)c1c(C)oc2cc(Oc3ncnc4cc(OC)c(OC)cc34)ccc12` [Fruquintinib]: 0.153 °C; for `CC(C)(O)c1nc(-c2cccc(CNC(=O)c3cnc(-c4ccccn4)nc3)c2)no1`: -0.0235 °C.
As to `N#Cc1ccc2[nH]c(O)c(-c3ccc(CN4CCOCC4)cn3)c2c1`, the “thermal shift ΔTm of Mpro” value was -0.153 °C.
On to `Cc1ccc(C(=O)NCCCCCC(=O)Nc2ccccc2N)cc1`, for which the “thermal shift ΔTm of Mpro” value was determined as 0.104 °C.
For `CCN(CC)CCCC(C)Nc1c2ccc(Cl)cc2nc2ccc(OC)cc12` (stereo not drawn) [Quinacrine 2HCl], the “thermal shift ΔTm of Mpro” value was -0.107 °C.
Then `Cc1ccc(O)cc1.Cc1cccc(O)c1.Cc1ccccc1O` [Cresol], with -0.0238 °C.
The same measure for `Cc1nc(C)c(Cl)c(O)c1Cl` [Clopidol]: 0.157 °C; for `CCCCCCCCCCCCCCCC[N+](C)(C)CCN(Cc1ccc(OC)cc1)c1ncccn1` [Thonzonium Bromide]: -0.332 °C; for `CC(C)(C)NS(=O)(=O)c1cncc(-c2cc(F)c3nc(N)nn3c2)c1`: -0.0848 °C.
Then `O=C(O)P(=O)(O)O` [Foscarnet Sodium], with -0.0185 °C; and `CC(C)NCC(O)c1ccc(NS(C)(=O)=O)cc1` (stereo not drawn) [Sotalol], with 0.0245 °C.
`C#C[C@]1(O)CC[C@H]2[C@@H]3CCc4cc(OC)ccc4[C@H]3CC[C@@]21C` [Mestranol]: the “thermal shift ΔTm of Mpro” value came out at 0.127 °C.
Then `CN(C)C(=O)c1ccc(S(=O)(=O)c2ccc(NC(=O)[C@@](C)(O)C(F)(F)F)c(Cl)c2)cc1`, with -0.295 °C; and `COc1cc(C=O)ccc1O` [Vanillin], with -0.0824 °C; and `C1=N/C2=N/c3ccc(OCCN4CCCC4)c(c3)COC/C=C/COCc3cccc(c3)C(=C1)N2` [Pacritinib (SB1518)], with -0.241 °C.
Then `COc1ccc2cccc(CCNC(C)=O)c2c1` [Agomelatine], with 0.111 °C.
Then `Cc1c(Cl)c(OCC(=O)N2CCN(C)CC2)nc2sc(C(=O)NC3CC3)c(N)c12`, with -0.175 °C; and `CNc1ncc2cc(-c3cc(NC(=O)NCCC(C)(C)C)c(F)cc3C)c(C)nc2n1`, with 0.0611 °C.
`Cc1[nH]c(/C=C2\C(=O)Nc3ccccc32)c(C)c1CCC(=O)O` [TSU-68 (SU6668, Orantinib)]: the “thermal shift ΔTm of Mpro” value amounted to 0.248 °C.
The same measure for `CC(C)c1cnn2c(NCc3ccccc3-n3cccn3)nc(OC3CCCNC3)nc12` (stereo not drawn): 0.215 °C.
The same measure for `CNCC(O)c1ccc(O)c(O)c1` (racemic) [DL-Adrenalin]: -0.107 °C; for `CN(CCOc1ccc(NS(C)(=O)=O)cc1)CCc1ccc(NS(C)(=O)=O)cc1` [Dofetilide]: 0.0498 °C; for `CC(=O)N1CCN(c2ccc(OCC3COC(Cn4ccnc4)(c4ccc(Cl)cc4Cl)O3)cc2)CC1` (stereo not drawn) [Ketoconazole]: 0.385 °C.
The same measure for `O=c1c(-c2ccc(O)cc2)coc2cc(O)cc(O)c12` [Genistein]: 0.396 °C; for `CN1CC[C@@]23CCCC[C@@H]2[C@@H]1Cc1ccc(O)cc13` [Dextrorphan tartrate]: 0.0239 °C; for `OCc1ccc(-c2ccc(-c3ccc(CO)s3)o2)s1`: -0.0446 °C.
For `Cc1c(-c2ccc(N3CCc4cccc(C(=O)Nc5nc6ccccc6s5)c4C3)nc2C(=O)O)cnn1CC12CC3CC(CC(C3)C1)C2`, the “thermal shift ΔTm of Mpro” value was -0.358 °C.
Then `O=C(O)c1ccc(Nc2ncc3c(n2)-c2ccc(Cl)cc2C(c2c(F)cccc2F)=NC3)cc1`, with 0.193 °C; and `Clc1cc2c(NC3CCCC3)nnc(-c3ccncc3)c2cc1Cl`, with -0.126 °C.
As to `Cc1cc(N2CCOCC2)ccc1Nc1nc(NC2CCCCC2)c2[nH]cnc2n1`, the “thermal shift ΔTm of Mpro” value is -0.368 °C.
The same measure for `C[C@H](NC(=O)Cc1cc(F)cc(F)c1)C(=O)N[C@@H]1C(=O)N(C)c2ccccc2-c2ccccc21`: -0.103 °C.
Then `CSc1cccc(Nc2ncc3cc(-c4c(Cl)cccc4Cl)c(=O)n(C)c3n2)c1`, with -0.0659 °C; and `O=C(NC1CCCCC1)N(Cc1ccccc1)CC1CCNCC1`, with 0.0723 °C; and `CC(C)(C)c1ccc(S(=O)(=O)Nc2ccc(-n3ccnc3)cc2)cc1`, with -0.00392 °C.

Source of the values: the supplement of paper PMC8166895.
